# This is one part of the list.
# B1: ERGIC1-EDTA (Homo sapiens), Q969X5 (protein)
# chain: MKFLVNVALVFMVVYISYIYAAAHMHHHHHHDYDIPTTENLYFQGSEVVNELYVDDPDKDSGGKIDVSLNISLPNLHCELVGLDIQDEMGRHEVGHIDNSMKIPLNNGAGCRFEGQFSINKVPGNFHVSTHSATAQPQNPDMTHVIHKLSFGDTLQVQNIHGAFNALGGADRLTSNPLASHDYILKIVPTVYEDKSGKQRYSYQYTVANKEYVAYSHTGRIIPAIWFRYDLSPITVKYTE
# Legend:
# Assay in all cases: glycan array binding signal (z-score within array); higher = stronger binding
# Settings in all cases: glycan notation: IUPAC condensed, linker removed
# [1] = biological target: Fuc(a1-2)[Gal(a1-3)]Gal(b1-4)GlcNAc(b1-2)Man(a1-3)[Fuc(a1-2)[Gal(a1-3)]Gal(b1-4)GlcNAc(b1-2)Man(a1-6)]Man(b1-4)GlcNAc(b1-4)GlcNAc
# Procedure, shortened: (§1)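 The binding signal is a Z-score computed within each array. Data were drawn from 3228 arrays in the Consortium for Functional Glycomics database, restricted to those with a known protein sequence. Scores were averaged over arrays of the same protein sequence at different concentrations or buffers, and over linkers, and negative values can be taken as non-binding.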
# [2] = biological target: Fuc(a1-2)[Gal(a1-3)]Gal(b1-4)GlcNAc(b1-2)Man(a1-3)[Fuc(a1-2)[Gal(a1-3)]Gal(b1-4)GlcNAc(b1-2)Man(a1-6)]Man(b1-4)GlcNAc(b1-4)[Fuc(a1-6)]GlcNAc
# Procedure, shortened: as §1
# [3] = biological target: Fuc(a1-2)[Gal(a1-3)]Gal(b1-4)GlcNAc(b1-3)GalNAc
# Procedure, shortened: as §1
# [4] = biological target: Fuc(a1-2)[Gal(a1-3)]Gal(b1-4)GlcNAc(b1-3)[Fuc(a1-2)[Gal(a1-3)]Gal(b1-4)GlcNAc(b1-6)]GalNAc
# Procedure, shortened: as §1
# [5] = biological target: Fuc(a1-2)[Gal(a1-3)]Gal(b1-4)GlcNAc(b1-6)GalNAc
# Procedure, shortened: as §1
# [6] = biological target: Fuc(a1-2)[Gal(a1-3)]Gal(b1-4)[Fuc(a1-3)]Glc
# Procedure, shortened: as §1
# [7] = biological target: Fuc(a1-2)[Gal(a1-3)]Gal(b1-4)[Fuc(a1-3)]GlcNAc
# Procedure, shortened: as §1
# [8] = biological target: Fuc(a1-2)[Gal(a1-3)]Gal(b1-4)[Fuc(a1-3)]GlcNAc(b1-3)GalNAc
# Procedure, shortened: as §1
# [9] = biological target: Fuc(a1-2)[Gal(a1-4)]Gal(b1-4)GlcNAc
# Procedure, shortened: as §1
# [10] = biological target: Fuc(a1-2)[GalNAc(a1-3)]Gal
# Procedure, shortened: as §1
# [11] = biological target: Fuc(a1-2)[GalNAc(a1-3)]Gal(b1-3)GalNAc(a1-3)[Fuc(a1-2)]Gal(b1-4)GlcNAc
# Procedure, shortened: as §1
# [12] = biological target: Fuc(a1-2)[GalNAc(a1-3)]Gal(b1-3)GalNAc(b1-3)Gal(a1-4)Gal(b1-4)Glc
# Procedure, shortened: as §1
# [13] = biological target: Fuc(a1-2)[GalNAc(a1-3)]Gal(b1-3)GlcNAc
# Procedure, shortened: as §1
# [14] = biological target: Fuc(a1-2)[GalNAc(a1-3)]Gal(b1-3)GlcNAc(b1-2)Man(a1-3)[Fuc(a1-2)[GalNAc(a1-3)]Gal(b1-3)GlcNAc(b1-2)Man(a1-6)]Man(b1-4)GlcNAc(b1-4)GlcNAc
# Procedure, shortened: as §1
# [15] = biological target: Fuc(a1-2)[GalNAc(a1-3)]Gal(b1-3)GlcNAc(b1-2)Man(a1-3)[Fuc(a1-2)[GalNAc(a1-3)]Gal(b1-3)GlcNAc(b1-2)Man(a1-6)]Man(b1-4)GlcNAc(b1-4)[Fuc(a1-6)]GlcNAc
# Procedure, shortened: as §1
# [16] = biological target: Fuc(a1-2)[GalNAc(a1-3)]Gal(b1-3)GlcNAc(b1-3)GalNAc
# Procedure, shortened: as §1
# [17] = biological target: Fuc(a1-2)[GalNAc(a1-3)]Gal(b1-3)GlcNAc(b1-6)GalNAc
# Procedure, shortened: as §1
# [18] = biological target: Fuc(a1-2)[GalNAc(a1-3)]Gal(b1-4)Glc
# Procedure, shortened: as §1
# [19] = biological target: Fuc(a1-2)[GalNAc(a1-3)]Gal(b1-4)GlcNAc
# Procedure, shortened: as §1
# [20] = biological target: Fuc(a1-2)[GalNAc(a1-3)]Gal(b1-4)GlcNAc(b1-2)Man
# Procedure, shortened: as §1
# [21] = biological target: Fuc(a1-2)[GalNAc(a1-3)]Gal(b1-4)GlcNAc(b1-2)Man(a1-3)[Fuc(a1-2)[GalNAc(a1-3)]Gal(b1-4)GlcNAc(b1-2)Man(a1-6)]Man(b1-4)GlcNAc(b1-4)GlcNAc
# Procedure, shortened: as §1
# [22] = biological target: Fuc(a1-2)[GalNAc(a1-3)]Gal(b1-4)GlcNAc(b1-2)Man(a1-3)[Fuc(a1-2)[GalNAc(a1-3)]Gal(b1-4)GlcNAc(b1-2)Man(a1-6)]Man(b1-4)GlcNAc(b1-4)[Fuc(a1-6)]GlcNAc
# Procedure, shortened: as §1
# [23] = biological target: Fuc(a1-2)[GalNAc(a1-3)]Gal(b1-4)GlcNAc(b1-3)Gal(b1-4)GlcNAc
# Procedure, shortened: as §1
# [24] = biological target: Fuc(a1-2)[GalNAc(a1-3)]Gal(b1-4)GlcNAc(b1-3)Gal(b1-4)GlcNAc(b1-3)Gal(b1-4)GlcNAc
# Procedure, shortened: as §1
# [25] = biological target: Fuc(a1-2)[GalNAc(a1-3)]Gal(b1-4)GlcNAc(b1-3)GalNAc
# Procedure, shortened: as §1
# [26] = biological target: Fuc(a1-2)[GalNAc(a1-3)]Gal(b1-4)GlcNAc(b1-3)[Fuc(a1-2)[GalNAc(a1-3)]Gal(b1-4)GlcNAc(b1-6)]GalNAc
# Procedure, shortened: as §1
# [27] = biological target: Fuc(a1-2)[GalNAc(a1-3)]Gal(b1-4)GlcNAc(b1-6)GalNAc
# Procedure, shortened: as §1
# [28] = biological target: Fuc(a1-2)[GalNAc(a1-3)]Gal(b1-4)[Fuc(a1-3)]GlcNAc
# Procedure, shortened: as §1
# [29] = biological target: Fuc(a1-2)[GalNAc(a1-3)]Gal(b1-4)[Fuc(a1-3)]GlcNAc(b1-3)GalNAc
# Procedure, shortened: as §1
# [30] = biological target: Fuc(a1-2)[GalNAc(a1-4)]Gal(b1-4)GlcNAc
# Procedure, shortened: as §1
# [31] = biological target: Fuc(a1-2)[GalNAc(b1-3)]Gal
# Procedure, shortened: as §1
# Fuc(a1-3)GlcNAc = biological target: Fuc(a1-3)GlcNAc
# Procedure, shortened: as §1
# [32] = biological target: Fuc(a1-3)[Gal(b1-4)]Glc6S
# Procedure, shortened: as §1
# [33] = biological target: Fuc(a1-3)[Gal(b1-4)]GlcNAc
# Procedure, shortened: as §1
# [34] = biological target: Fuc(a1-3)[Gal(b1-4)]GlcNAc(b1-2)Man
# Procedure, shortened: as §1
# [35] = biological target: Fuc(a1-3)[Gal(b1-4)]GlcNAc(b1-2)Man(a1-3)[Fuc(a1-3)[Gal(b1-4)]GlcNAc(b1-2)Man(a1-6)]Man(b1-4)GlcNAc(b1-4)GlcNAc
# Procedure, shortened: as §1
# [36] = biological target: Fuc(a1-3)[Gal(b1-4)]GlcNAc(b1-2)Man(a1-3)[Fuc(a1-3)[Gal(b1-4)]GlcNAc(b1-2)Man(a1-6)]Man(b1-4)GlcNAc(b1-4)[Fuc(a1-6)]GlcNAc
# Procedure, shortened: as §1
binder,measurement,setting,value
B1,glycan array binding signal (z-score),[1],0.131
same,glycan array binding signal (z-score),[2],0.154
same,glycan array binding signal (z-score),[3],-0.424
same,glycan array binding signal (z-score),[4],0.043
same,glycan array binding signal (z-score),[5],0.75
same,glycan array binding signal (z-score),[6],0.591
same,glycan array binding signal (z-score),[7],-0.221
same,glycan array binding signal (z-score),[8],0.81
same,glycan array binding signal (z-score),[9],0.441
same,glycan array binding signal (z-score),[10],-0.157
same,glycan array binding signal (z-score),[11],-1.34
same,glycan array binding signal (z-score),[12],0.746
same,glycan array binding signal (z-score),[13],0.499
same,glycan array binding signal (z-score),[14],-1.8
same,glycan array binding signal (z-score),[15],0.638
same,glycan array binding signal (z-score),[16],0.087
same,glycan array binding signal (z-score),[17],0.24
same,glycan array binding signal (z-score),[18],-0.32
same,glycan array binding signal (z-score),[19],-0.209
same,glycan array binding signal (z-score),[20],-0.903
same,glycan array binding signal (z-score),[21],0.438
same,glycan array binding signal (z-score),[22],2.25
same,glycan array binding signal (z-score),[23],0.213
same,glycan array binding signal (z-score),[24],0.601
same,glycan array binding signal (z-score),[25],0.4
same,glycan array binding signal (z-score),[26],0.33
same,glycan array binding signal (z-score),[27],0.023
same,glycan array binding signal (z-score),[28],0.399
same,glycan array binding signal (z-score),[29],1.98
same,glycan array binding signal (z-score),[30],-1.28
same,glycan array binding signal (z-score),[31],0.059
same,glycan array binding signal (z-score),Fuc(a1-3)GlcNAc,-0.758
same,glycan array binding signal (z-score),[32],-0.196
same,glycan array binding signal (z-score),[33],-0.323
same,glycan array binding signal (z-score),[34],-0.689
same,glycan array binding signal (z-score),[35],1.5
same,glycan array binding signal (z-score),[36],1.16

# As a short view, part of the list above:
binder,measurement,setting,value
B1,glycan array binding signal (z-score),[27],0.023
same,glycan array binding signal (z-score),[28],0.399
same,glycan array binding signal (z-score),[29],1.98

# Source: the supplement of paper PMC8728848
